Values of other authors as cited in patent US20240287021A1, “QUATERNARY AMMONIUM SALT COMPOUND, PREPARATION METHOD THEREFOR AND USE THEREOF” (YICHANG HUMANWELL PHARMACEUTICAL CO., LTD., priority 2021, published 2024).
Some of these results come from one statement about several compounds together.

Details: single dose; Becker et al., Anesth Prog. 2012; cited from earlier work

Compound | Analgesic duration
CCCCN1CCCCC1C(=O)Nc1c(C)cccc1C (centres unmarked) [bupivacaine] | ≤ 8 h
CCCN1CCCC[C@H]1C(=O)Nc1c(C)cccc1C [ropivacaine] | ≤ 8 h
